# The supplement of paper PMC12067093, “Discovery and optimisation of a covalent ligand for TRIM25 and its application to targeted protein ubiquitination” (Chemical Science, 2025)
# Chains of the proteins cited; added tags and fusions are not shown. Lines headed by an entry give the natural chain unless they say otherwise; changes in a name come on top.
# UniProt Q15785: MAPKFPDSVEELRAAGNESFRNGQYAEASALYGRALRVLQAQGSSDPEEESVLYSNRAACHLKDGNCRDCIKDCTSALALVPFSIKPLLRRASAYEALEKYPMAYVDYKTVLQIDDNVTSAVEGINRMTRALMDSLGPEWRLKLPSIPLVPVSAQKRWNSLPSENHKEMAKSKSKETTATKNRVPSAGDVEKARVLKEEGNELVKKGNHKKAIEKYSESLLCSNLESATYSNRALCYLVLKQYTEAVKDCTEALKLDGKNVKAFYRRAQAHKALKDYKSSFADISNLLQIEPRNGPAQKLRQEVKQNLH
# UniProt Q9BVK8: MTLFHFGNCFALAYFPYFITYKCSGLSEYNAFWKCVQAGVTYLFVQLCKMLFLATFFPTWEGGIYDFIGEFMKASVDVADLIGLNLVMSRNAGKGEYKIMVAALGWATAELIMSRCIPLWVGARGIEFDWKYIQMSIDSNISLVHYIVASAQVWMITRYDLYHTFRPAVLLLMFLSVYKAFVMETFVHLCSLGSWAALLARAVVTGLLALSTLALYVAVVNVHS
# UniProt Q9Y3Q3: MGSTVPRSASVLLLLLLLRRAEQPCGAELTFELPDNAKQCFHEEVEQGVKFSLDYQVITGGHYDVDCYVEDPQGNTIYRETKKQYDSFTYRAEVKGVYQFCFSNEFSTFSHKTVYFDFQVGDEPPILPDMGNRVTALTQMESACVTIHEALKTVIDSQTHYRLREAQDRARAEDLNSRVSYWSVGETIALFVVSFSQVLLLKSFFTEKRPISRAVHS
# UniProt O60603, whole entry, looked up: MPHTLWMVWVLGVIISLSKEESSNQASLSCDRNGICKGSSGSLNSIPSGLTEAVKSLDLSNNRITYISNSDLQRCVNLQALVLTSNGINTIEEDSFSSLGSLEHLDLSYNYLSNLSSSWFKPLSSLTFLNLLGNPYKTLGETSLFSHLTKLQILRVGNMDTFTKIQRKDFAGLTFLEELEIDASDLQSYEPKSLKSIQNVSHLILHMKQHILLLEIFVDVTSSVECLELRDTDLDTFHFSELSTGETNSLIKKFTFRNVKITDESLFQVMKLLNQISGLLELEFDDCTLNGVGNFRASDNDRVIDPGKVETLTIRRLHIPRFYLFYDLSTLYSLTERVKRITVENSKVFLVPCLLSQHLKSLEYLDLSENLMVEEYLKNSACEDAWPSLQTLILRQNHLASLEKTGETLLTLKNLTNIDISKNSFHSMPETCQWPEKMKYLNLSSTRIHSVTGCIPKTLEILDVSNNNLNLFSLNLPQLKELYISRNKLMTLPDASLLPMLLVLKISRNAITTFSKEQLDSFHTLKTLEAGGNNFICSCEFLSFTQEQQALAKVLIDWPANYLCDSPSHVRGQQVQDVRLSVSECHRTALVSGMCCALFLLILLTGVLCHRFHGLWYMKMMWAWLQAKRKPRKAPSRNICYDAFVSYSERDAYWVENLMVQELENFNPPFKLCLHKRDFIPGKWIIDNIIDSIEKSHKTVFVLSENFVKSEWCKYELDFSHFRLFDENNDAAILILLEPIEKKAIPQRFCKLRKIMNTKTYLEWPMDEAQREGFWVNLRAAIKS
# UniProt Q9Y490: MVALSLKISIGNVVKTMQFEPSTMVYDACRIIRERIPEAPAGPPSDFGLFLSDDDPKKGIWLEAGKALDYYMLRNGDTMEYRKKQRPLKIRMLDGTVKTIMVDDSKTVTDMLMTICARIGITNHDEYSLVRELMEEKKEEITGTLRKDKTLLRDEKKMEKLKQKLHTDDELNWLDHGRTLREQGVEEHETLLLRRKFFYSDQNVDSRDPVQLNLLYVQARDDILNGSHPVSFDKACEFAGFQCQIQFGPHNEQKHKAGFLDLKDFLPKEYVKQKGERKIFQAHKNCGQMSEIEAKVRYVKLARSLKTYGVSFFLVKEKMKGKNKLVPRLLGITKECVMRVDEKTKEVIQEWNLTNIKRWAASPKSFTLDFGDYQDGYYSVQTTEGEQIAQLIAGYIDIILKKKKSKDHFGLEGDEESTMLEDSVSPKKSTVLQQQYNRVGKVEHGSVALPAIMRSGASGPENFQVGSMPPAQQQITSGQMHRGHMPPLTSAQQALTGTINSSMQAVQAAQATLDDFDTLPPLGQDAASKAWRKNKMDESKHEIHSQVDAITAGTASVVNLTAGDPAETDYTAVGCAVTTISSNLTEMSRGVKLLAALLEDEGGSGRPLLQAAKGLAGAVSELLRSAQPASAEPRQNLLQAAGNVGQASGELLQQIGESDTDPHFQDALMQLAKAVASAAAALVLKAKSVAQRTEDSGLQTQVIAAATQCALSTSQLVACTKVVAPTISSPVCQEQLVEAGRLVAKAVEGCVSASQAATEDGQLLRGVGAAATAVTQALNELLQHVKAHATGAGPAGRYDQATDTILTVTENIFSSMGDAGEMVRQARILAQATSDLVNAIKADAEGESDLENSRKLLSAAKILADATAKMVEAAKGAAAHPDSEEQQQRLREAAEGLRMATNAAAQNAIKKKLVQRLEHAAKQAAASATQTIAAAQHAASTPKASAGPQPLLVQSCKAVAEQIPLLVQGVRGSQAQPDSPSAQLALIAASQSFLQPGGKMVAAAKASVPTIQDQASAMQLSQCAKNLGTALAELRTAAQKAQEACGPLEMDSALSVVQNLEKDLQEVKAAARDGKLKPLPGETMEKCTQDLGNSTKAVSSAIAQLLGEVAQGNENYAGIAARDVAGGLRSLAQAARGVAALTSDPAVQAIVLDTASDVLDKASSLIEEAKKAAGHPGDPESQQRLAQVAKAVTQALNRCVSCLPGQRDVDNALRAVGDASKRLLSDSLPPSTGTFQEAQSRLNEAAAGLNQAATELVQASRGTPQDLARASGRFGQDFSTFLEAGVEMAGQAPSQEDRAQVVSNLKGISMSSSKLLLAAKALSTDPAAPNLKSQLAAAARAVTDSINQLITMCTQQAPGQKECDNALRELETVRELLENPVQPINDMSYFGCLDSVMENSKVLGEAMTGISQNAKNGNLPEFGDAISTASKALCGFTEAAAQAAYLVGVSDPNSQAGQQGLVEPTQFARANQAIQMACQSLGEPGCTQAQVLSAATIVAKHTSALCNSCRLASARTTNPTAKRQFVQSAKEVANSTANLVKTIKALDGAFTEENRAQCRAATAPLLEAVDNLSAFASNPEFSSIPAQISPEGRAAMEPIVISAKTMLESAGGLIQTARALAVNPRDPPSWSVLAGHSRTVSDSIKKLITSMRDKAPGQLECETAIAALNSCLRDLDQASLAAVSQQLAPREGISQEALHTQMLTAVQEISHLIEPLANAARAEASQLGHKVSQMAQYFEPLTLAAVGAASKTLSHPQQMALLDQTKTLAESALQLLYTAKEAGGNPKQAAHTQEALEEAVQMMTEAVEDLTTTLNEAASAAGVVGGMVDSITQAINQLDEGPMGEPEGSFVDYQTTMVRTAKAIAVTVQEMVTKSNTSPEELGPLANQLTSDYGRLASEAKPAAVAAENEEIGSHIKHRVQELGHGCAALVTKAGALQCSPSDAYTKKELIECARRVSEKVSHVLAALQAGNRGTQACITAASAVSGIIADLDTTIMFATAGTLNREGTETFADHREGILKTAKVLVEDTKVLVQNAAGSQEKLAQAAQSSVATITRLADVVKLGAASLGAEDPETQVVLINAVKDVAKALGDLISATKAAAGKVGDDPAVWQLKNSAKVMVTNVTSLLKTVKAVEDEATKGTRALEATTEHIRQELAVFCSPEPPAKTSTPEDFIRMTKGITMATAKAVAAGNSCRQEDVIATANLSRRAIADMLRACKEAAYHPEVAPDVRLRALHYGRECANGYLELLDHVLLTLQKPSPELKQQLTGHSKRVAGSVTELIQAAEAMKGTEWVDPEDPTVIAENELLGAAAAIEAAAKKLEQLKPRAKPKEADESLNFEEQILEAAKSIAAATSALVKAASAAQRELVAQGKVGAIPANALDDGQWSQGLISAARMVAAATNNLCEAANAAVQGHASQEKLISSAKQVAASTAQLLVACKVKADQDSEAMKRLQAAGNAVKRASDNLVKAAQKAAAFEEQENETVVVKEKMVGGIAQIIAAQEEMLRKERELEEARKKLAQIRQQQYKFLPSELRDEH
# UniProt P11387: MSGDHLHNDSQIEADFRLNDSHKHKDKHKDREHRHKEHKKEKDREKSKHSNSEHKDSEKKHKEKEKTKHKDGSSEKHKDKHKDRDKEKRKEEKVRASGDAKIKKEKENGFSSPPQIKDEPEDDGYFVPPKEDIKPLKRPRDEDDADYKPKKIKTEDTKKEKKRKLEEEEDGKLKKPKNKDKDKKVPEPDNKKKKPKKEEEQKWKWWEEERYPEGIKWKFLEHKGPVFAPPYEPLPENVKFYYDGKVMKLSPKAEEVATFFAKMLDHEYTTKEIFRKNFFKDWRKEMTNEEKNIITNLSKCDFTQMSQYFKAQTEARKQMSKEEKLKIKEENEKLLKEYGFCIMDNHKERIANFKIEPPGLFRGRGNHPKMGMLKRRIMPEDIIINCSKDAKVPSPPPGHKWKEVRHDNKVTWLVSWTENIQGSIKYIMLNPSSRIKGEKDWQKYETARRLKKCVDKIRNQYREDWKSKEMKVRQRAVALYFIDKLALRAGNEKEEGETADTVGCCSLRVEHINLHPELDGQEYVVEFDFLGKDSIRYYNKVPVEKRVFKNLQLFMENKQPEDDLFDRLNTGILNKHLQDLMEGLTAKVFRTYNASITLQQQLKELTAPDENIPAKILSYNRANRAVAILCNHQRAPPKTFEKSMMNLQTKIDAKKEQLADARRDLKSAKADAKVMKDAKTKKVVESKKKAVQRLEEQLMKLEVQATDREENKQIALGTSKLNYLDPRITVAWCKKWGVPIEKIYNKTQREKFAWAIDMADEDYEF
# UniProt P06753, whole entry, looked up: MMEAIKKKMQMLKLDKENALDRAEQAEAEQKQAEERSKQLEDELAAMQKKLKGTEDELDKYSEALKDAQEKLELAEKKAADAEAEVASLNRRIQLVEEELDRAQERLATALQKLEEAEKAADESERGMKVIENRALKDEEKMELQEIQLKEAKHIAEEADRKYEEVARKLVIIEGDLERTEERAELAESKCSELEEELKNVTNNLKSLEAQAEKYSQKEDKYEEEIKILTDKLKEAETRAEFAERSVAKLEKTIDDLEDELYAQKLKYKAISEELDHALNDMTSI
# UniProt Q96HA7: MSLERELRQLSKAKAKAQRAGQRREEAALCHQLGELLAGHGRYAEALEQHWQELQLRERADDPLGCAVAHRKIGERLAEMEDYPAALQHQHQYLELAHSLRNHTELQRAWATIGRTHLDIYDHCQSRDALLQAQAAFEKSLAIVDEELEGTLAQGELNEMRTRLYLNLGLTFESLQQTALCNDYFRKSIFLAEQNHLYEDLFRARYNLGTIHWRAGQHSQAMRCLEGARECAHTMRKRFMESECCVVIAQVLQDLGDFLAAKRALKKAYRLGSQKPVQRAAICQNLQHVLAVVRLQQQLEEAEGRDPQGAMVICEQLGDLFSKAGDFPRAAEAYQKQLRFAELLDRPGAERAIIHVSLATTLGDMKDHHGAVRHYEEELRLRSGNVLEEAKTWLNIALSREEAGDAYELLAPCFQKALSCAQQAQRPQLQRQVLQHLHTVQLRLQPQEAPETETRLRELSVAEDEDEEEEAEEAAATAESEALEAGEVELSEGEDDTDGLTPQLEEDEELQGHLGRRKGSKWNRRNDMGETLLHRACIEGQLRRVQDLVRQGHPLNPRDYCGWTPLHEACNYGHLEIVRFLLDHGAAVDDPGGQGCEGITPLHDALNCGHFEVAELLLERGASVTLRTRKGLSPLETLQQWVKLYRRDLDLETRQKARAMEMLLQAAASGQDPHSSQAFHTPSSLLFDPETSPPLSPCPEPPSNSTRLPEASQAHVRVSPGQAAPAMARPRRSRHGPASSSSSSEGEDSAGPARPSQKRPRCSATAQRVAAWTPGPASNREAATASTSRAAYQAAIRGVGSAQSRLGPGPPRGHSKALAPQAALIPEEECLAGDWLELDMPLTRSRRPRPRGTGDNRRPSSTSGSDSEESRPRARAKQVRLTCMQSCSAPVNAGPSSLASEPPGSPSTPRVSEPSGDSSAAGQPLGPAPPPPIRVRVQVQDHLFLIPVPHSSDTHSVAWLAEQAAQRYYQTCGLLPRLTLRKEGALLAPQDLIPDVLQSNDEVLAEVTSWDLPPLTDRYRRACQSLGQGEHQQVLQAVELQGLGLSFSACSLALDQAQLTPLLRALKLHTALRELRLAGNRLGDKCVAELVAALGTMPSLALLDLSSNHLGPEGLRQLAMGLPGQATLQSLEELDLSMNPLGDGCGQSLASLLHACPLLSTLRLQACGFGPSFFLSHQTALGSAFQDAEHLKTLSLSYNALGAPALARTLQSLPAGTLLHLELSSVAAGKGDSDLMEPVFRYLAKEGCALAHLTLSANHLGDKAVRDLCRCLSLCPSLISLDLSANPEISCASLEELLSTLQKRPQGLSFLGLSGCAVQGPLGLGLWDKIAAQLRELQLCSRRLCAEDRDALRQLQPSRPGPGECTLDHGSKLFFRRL
# This is one part of the list.
# Compound: Cc1cc(ccc1-c1ccccc1)C(=O)N1CCCN(CC1)C(=O)CCl [compound 10]
# Experiment: probe-labelled cysteine peptide fold change vs DMSO (competition) (log2 fold change); higher = less target engagement (more negative = stronger competition)
# Conditions: 50 µM; THP-1; incubation time: 4 h
# 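Further: competitive profiling in live THP-1 cells: cysteine peptides tagged with an iodoacetamide desthiobiotin (IA-DTB) probe, intensity after compound treatment relative to DMSO-treated cells.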
row,Target,probe-labelled cysteine peptide fold change
1,TOMM34_Q15785_74_DCTSALALVPFSIK (UniProt Q15785),-0.205
2,TOP3B_O95985_819_HAASCHPMHR (UniProt O95985),-0.372
3,TMEM192_Q8IY95_266_RLLALTSSDLGCQPSR (UniProt Q8IY95),0.17
4,TOMM40_O96008_76_TPGAATASASGAAEDGACGCLPNPGTFEECHRK (UniProt O96008),-0.72
5,TNPO2_O14787_375_CSAAALDVLANVFR (UniProt O14787),0.661
6,TLR6_Q9Y2C9_672_EDIQICLHER (UniProt Q9Y2C9),-0.000825
7,TMEM147_Q9BVK8_116_CIPLWVGAR (UniProt Q9BVK8),-0.102
8,TPI1_P60174_124_DCGATWVVLGHSER (UniProt P60174),0.088
9,TMED3_Q9Y3Q3_40_QCFHEEVEQGVK (UniProt Q9Y3Q3),0.195
10,TLR2_O60603_585_LSVSECHR (UniProt O60603),-0.0389
11,TLN1_Q9Y490_2408_MVAAATNNLCEAANAAVQGHASQEK (UniProt Q9Y490),0.0436
12,TOP1_P11387_300_CDFTQMSQYFK (UniProt P11387),0.0679
13,TMLHE_Q9NVH6_103_SLDTASVDLCIKPK (UniProt Q9NVH6),-0.437
14,TNKS1BP1_Q9C0C2_1296_NMAPGAVCSPGESK (UniProt Q9C0C2),-0.58
15,TOP2A_P11388_170_LCNIFSTK (UniProt P11388),-0.0147
16,TPM3_P06753-2_233_EEHLCTQR (UniProt P06753),-0.363
17,TOMM34_Q15785_74_DCTSALALVPFSIKPLLR (UniProt Q15785),-0.93
18,TOPBP1_Q92547_238_MNECTHLIVQEPK (UniProt Q92547),-0.0928

# Quoted from the listing for reference:
row,Target,probe-labelled cysteine peptide fold change
9,TMED3_Q9Y3Q3_40_QCFHEEVEQGVK (UniProt Q9Y3Q3),0.195
10,TLR2_O60603_585_LSVSECHR (UniProt O60603),-0.0389

# (next part)

row,Target,probe-labelled cysteine peptide fold change
1,TMEM248_Q9NWD8_305_QSNPEFCPEK (UniProt Q9NWD8),-0.534
2,TOMM70_O94826_588_SEMEMAHLYSLCDAAHAQTEVAK (UniProt O94826),0.122
3,TONSL_Q96HA7_972_YYQTCGLLPR (UniProt Q96HA7),0.0343
4,TOP3B_O95985_58_MTSVCGHVMTLDFLGK (UniProt O95985),0.179
5,TONSL_Q96HA7_1248_EGCALAHLTLSANHLGDK (UniProt Q96HA7),-0.312
6,TNPO1_Q92973_164_ICEDSAEILDSDVLDRPLNIMIPK (UniProt Q92973),-0.0838
7,TNPO1_Q92973_683_SNILTLMYQCMQDK (UniProt Q92973),0.018
8,TOP2B_Q02880_237_HFDGEDYTCITFQPDLSK (UniProt Q02880),0.0886
9,TLN1_Q9Y490_956_ASAGPQPLLVQSCK (UniProt Q9Y490),0.0552
10,TOP1_P11387_504_EEGETADTVGCCSLR (UniProt P11387),0.192
11,TOP2A_P11388_300_WEVCLTMSEK (UniProt P11388),0.261
12,TOPORS_Q9NS56_49_HRPSFLGCR (UniProt Q9NS56),-0.592
13,TNS3_Q68CZ2_1381_HYPVNSVIFCALDPQDRK (UniProt Q68CZ2),-0.121
14,TOP1_P11387_504+505_EEGETADTVGCCSLR (UniProt P11387),-0.39
15,TNPO1_Q92973_103_SECLNNIGDSSPLIR (UniProt Q92973),0.154
16,TOPORS_Q9NS56_550_GHCDSSTR (UniProt Q9NS56),-0.252
17,TOP1_P11387_341_EYGFCIMDNHK (UniProt P11387),-0.0292
